Source: the supplement of paper PMC10849652
This is one part of the list.

Chains of the proteins cited; added tags and fusions are not shown. Lines headed by an entry give the natural chain unless they say otherwise; changes in a name come on top.
UniProt Q9NWH9: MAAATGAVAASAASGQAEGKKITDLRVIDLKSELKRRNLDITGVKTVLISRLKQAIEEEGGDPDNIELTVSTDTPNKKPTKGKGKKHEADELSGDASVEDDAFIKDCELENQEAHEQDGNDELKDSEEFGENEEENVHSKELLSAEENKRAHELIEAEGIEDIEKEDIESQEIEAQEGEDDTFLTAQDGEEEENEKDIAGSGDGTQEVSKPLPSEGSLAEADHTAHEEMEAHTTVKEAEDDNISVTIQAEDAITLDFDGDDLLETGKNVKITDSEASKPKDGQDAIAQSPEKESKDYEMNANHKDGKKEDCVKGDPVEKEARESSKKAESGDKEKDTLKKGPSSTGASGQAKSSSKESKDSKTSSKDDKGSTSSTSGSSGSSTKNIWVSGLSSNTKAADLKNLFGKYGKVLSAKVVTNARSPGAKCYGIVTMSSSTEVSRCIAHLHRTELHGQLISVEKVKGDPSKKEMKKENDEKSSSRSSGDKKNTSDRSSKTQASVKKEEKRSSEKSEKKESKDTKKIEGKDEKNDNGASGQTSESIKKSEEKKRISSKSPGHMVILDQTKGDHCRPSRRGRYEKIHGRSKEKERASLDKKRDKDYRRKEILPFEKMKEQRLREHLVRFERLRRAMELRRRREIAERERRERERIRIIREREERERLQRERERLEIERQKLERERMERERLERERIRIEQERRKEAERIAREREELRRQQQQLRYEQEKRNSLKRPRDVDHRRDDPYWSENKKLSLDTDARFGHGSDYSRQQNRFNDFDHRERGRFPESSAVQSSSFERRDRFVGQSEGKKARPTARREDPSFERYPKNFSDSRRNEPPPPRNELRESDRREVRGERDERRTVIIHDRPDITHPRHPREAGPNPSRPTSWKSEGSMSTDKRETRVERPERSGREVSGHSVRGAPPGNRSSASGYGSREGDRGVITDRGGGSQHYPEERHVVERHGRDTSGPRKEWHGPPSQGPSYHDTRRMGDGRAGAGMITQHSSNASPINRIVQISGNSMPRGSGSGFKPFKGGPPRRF
UniProt P53794: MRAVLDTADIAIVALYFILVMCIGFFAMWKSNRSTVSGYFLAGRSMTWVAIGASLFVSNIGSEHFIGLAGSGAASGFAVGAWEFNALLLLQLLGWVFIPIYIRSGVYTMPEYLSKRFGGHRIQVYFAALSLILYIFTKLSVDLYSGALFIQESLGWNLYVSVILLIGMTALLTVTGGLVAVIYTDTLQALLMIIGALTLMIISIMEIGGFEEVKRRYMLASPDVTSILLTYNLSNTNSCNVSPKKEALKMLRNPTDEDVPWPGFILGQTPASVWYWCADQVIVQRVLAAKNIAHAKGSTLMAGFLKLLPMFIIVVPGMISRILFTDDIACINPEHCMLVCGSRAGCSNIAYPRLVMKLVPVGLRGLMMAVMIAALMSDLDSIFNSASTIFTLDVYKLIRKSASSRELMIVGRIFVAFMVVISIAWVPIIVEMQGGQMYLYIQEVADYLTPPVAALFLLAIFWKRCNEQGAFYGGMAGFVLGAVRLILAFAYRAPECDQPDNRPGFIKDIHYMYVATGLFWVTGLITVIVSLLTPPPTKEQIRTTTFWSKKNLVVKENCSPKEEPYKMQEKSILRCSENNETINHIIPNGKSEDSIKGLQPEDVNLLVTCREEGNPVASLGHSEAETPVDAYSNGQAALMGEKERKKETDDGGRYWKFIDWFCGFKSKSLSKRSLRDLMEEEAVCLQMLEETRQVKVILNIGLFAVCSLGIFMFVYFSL
UniProt Q8TBP6: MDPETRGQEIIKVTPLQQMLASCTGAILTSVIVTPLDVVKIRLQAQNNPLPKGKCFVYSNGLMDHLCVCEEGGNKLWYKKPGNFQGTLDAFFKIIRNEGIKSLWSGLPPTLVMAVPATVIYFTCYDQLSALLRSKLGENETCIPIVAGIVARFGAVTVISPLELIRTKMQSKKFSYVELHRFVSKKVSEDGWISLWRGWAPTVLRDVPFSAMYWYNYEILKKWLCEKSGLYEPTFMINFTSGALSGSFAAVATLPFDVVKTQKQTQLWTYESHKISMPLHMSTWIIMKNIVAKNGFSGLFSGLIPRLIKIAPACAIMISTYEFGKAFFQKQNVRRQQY
UniProt Q9BRY0: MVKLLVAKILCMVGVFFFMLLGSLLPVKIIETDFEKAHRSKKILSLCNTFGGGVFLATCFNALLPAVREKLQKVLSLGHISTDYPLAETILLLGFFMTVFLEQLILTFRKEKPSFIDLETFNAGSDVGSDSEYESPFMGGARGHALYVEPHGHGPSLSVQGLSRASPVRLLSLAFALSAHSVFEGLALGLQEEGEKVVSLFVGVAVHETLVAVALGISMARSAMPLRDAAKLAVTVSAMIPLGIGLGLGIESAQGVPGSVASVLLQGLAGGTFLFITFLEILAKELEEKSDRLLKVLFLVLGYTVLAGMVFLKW
UniProt P11166: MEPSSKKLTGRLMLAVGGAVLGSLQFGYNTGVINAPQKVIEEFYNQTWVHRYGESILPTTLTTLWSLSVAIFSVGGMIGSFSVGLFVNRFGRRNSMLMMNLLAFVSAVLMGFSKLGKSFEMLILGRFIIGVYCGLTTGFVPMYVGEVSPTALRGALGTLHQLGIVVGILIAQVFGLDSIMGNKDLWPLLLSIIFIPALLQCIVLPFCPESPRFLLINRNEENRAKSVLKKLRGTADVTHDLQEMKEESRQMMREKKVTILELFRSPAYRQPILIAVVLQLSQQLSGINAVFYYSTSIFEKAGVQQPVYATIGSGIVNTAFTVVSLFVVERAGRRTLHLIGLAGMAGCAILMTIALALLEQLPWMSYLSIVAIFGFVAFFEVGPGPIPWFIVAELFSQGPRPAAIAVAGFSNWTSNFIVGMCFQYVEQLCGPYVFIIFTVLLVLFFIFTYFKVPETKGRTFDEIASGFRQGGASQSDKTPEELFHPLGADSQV
UniProt O15198: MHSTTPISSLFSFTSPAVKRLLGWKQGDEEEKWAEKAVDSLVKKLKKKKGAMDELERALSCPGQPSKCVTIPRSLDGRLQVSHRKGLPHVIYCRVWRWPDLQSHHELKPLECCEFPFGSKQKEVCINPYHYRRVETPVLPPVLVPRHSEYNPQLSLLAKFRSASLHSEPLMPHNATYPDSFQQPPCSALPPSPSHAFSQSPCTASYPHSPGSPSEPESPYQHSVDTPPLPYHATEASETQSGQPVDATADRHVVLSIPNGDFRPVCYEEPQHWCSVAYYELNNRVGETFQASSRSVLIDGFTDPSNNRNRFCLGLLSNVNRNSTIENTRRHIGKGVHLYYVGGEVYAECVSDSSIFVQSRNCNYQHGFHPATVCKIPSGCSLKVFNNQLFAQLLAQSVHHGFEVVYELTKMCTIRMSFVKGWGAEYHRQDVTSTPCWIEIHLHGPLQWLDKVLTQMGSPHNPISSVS
UniProt O00400: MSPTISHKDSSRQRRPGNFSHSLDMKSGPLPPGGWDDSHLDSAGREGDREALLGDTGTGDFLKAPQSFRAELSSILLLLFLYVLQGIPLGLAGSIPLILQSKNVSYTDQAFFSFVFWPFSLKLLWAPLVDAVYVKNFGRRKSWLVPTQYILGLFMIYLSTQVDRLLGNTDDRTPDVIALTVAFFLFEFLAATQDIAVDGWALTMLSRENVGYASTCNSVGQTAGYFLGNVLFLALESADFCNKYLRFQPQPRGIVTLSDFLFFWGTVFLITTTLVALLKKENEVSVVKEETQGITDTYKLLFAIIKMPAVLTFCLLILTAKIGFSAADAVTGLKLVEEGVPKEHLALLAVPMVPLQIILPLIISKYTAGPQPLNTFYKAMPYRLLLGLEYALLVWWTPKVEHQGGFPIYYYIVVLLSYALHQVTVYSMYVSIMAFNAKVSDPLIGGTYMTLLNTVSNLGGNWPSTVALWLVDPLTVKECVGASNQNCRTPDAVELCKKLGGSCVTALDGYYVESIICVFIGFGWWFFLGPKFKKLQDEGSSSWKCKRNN
UniProt O75387: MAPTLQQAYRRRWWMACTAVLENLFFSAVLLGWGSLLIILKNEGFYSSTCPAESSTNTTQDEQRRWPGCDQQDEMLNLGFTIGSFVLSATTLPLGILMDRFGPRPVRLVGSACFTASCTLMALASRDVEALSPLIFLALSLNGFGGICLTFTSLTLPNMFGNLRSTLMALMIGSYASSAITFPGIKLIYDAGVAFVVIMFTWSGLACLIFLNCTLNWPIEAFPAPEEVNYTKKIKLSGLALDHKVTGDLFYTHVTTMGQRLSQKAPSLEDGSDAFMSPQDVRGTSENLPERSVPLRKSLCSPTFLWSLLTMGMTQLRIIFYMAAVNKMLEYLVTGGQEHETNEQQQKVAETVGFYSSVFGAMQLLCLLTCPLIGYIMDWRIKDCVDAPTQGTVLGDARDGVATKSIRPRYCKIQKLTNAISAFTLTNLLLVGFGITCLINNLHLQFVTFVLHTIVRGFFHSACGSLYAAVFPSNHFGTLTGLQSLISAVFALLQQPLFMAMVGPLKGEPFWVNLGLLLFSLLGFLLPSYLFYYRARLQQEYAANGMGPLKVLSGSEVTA
UniProt Q6P1K1: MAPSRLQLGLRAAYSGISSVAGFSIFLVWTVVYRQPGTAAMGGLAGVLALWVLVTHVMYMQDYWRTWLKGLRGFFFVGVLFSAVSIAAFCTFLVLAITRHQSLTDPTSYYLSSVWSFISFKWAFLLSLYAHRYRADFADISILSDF
UniProt Q9Y619: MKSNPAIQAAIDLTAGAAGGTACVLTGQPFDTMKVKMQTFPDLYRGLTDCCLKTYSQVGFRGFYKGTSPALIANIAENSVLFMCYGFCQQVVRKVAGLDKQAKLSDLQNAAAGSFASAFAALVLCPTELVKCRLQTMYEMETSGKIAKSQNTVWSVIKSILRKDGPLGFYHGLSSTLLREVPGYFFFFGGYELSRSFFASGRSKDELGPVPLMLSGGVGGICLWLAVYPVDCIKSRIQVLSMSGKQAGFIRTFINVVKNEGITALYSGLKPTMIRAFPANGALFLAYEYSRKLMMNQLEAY
UniProt P12236: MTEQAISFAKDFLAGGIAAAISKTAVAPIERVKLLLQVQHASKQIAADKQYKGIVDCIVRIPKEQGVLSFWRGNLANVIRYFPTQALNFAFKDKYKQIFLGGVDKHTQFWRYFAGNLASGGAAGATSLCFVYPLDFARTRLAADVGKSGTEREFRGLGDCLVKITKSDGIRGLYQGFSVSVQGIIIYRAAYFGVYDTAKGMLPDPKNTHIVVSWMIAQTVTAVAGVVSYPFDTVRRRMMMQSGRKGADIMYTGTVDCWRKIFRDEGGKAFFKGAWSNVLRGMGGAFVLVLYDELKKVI
UniProt Q8IXU6: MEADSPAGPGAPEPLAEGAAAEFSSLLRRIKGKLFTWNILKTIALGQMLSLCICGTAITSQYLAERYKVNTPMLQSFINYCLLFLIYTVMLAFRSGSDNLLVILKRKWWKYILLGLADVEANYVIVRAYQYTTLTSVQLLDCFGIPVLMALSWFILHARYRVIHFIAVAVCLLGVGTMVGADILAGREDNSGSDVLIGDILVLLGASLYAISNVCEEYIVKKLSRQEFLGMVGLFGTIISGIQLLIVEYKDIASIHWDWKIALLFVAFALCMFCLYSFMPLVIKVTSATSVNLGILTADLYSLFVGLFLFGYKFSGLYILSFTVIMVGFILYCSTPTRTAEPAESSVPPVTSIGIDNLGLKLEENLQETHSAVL
UniProt Q00325: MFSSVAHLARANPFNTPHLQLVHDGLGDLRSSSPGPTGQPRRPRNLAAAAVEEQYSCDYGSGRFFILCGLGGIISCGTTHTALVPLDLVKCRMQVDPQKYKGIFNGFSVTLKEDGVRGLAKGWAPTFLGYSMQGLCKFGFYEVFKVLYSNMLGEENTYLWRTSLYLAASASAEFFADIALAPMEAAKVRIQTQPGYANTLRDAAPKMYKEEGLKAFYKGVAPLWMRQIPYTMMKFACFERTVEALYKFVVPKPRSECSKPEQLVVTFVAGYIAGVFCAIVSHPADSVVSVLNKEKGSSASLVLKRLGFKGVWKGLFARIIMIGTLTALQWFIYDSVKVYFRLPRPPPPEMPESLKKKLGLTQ
UniProt Q8NBI5: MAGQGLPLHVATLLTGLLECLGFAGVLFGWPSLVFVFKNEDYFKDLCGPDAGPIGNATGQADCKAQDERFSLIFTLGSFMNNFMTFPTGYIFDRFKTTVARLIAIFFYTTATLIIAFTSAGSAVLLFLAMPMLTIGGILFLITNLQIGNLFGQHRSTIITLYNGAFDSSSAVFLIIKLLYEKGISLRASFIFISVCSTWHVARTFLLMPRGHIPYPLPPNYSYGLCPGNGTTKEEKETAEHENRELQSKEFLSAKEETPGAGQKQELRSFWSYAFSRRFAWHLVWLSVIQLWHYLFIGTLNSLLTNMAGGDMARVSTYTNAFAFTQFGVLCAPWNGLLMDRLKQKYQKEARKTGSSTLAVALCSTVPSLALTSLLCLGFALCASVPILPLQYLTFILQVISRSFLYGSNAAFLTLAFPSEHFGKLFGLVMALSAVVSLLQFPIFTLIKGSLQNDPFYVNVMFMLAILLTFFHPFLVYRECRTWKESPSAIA

Experiments:
Assay in all cases: log2 fold change, soluble protein after heating vs DMSO (PISA); higher = thermal stabilisation; K562 lysate, 10 uM; active = over 0.2 and 3.5 SD of the protein, either way, in both replicates (recomputed)
[1] = compound: CN1CCC(CNc2ccc3ncc(-c4cccc(OC(F)(F)F)c4)n3n2)CC1
Summary of the method: (§1)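 Values give the log-two fold change in thermal stability against solvent controls, from duplicates. Crude K562 extract at 1 mg/mL protein, made by dounce homogenisation in PBS pH 7.4 with 1 mM MgCl2, was treated with 10 μM compound for 30 min. After 3 min heating across 48°C-58°C, aliquots were pooled, adjusted to 0.5% NP-40 at 4°C and centrifuged at 21,000xg for 90 min. The supernatant was measured by TMTpro 16plex LC-MS/MS with channel sums equalised.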

[2] = compound: CN1CCN(CCOc2cc(OC3CCOCC3)c3c(Nc4c(Cl)ccc5c4OCO5)ncnc3c2)CC1 [saracatinib]
Summary of the method: as §1

[3] = compound: CN1CCN(c2nc(C3=C(c4c[nH]c5ccccc45)C(=O)NC3=O)c3ccccc3n2)CC1 [sotrastaurin]
Summary of the method: as §1

[4] = compound: CN1CC[C@H](c2c(O)cc(O)c3c(=O)cc(-c4ccccc4Cl)oc23)[C@H](O)C1 [alvocidib]
Summary of the method: as §1

[5] = compound: CN1CCc2c(c3ccccc3n2Cc2ccc(C(=O)NO)cc2)C1 [Tubastatin A]
Summary of the method: as §1

[6] = compound: CNC(=O)C1=CC=CC=C1NC2=NC(=NC=C2Cl)NC3=C(C=C(C=C3)N4CCOCC4)OC
Summary of the method: as §1

[7] = compound: CNC(=O)c1ccc(Nc2ncc(C(F)(F)F)c(NCc3nccnc3N(C)S(C)(=O)=O)n2)cc1 [defactinib]
Summary of the method: as §1

[8] = compound: CNc1nc(-c2ccc3c(N)n[nH]c3c2)cc(N2C[C@@H](C(=O)NC3CCCCC3)CC[C@H]2C)n1
Summary of the method: as §1

[9] = compound: COC(=O)N[C@@H](C)CNc1nccc(-c2cn(C(C)C)nc2-c2cc(Cl)cc(NS(C)(=O)=O)c2F)n1 [encorafenib]
Summary of the method: as §1

[10] = compound: COC(=O)[C@H](CCSC)NC(=O)C1=C(C=C(C=C1)NC[C@H](CS)N)C2=CC=CC=C2
Summary of the method: as §1

[11] = compound: COc1cc(Nc2ncc3c(n2)-c2ccc(Cl)cc2C(c2c(F)cccc2OC)=NC3)ccc1C(=O)O [alisertib]
Summary of the method: as §1

[12] = compound: COc1cc2nc(-c3cc(F)ccc3O)nc(N[C@@H]3CNC[C@H]3C(C)(C)O)c2cc1OC
Summary of the method: as §1

[13] = compound: COc1cc2ncnc(Nc3ccc(F)c(Cl)c3)c2cc1OCCCN1CCOCC1 [gefitinib]
Summary of the method: as §1

[14] = compound: CS(=O)(=O)CCNCc1ccc(-c2ccc3ncnc(Nc4ccc(OCc5cccc(F)c5)c(Cl)c4)c3c2)o1 [lapatinib]
Summary of the method: as §1

[15] = compound: CS(=O)(=O)N1CCN(Cc2cc3nc(-c4cccc5[nH]ncc45)nc(N4CCOCC4)c3s2)CC1 [pictilisib]
Summary of the method: as §1

[16] = compound: C[C@@H](Oc1cc(-c2cnn(C3CCNCC3)c2)cnc1N)c1c(Cl)ccc(F)c1Cl [crizotinib]
Summary of the method: as §1

[17] = compound: C[C@H](C1=CC=C(C=C1)C(=O)NC2=C3C=CNC3=NC=C2)N
Summary of the method: as §1

[18] = compound: C[C@H](Nc1ncnc2nc[nH]c12)c1cc2cccc(Cl)c2c(=O)n1-c1ccccc1 [duvelisib]
Summary of the method: as §1

[19] = compound: Cc1cc(Nc2cc(CN3CCOCC3)c3nc(C)c(Cc4ccc(Cl)cc4F)n3n2)n[nH]1 [gandotinib]
Summary of the method: as §1

[20] = compound: Cc1cc(Nc2cc(N3CCN(C)CC3)nc(Sc3ccc(NC(=O)C4CC4)cc3)n2)n[nH]1 [tozasertib]
Summary of the method: as §1

[21] = compound: Cc1ccc(-n2nc(C(C)(C)C)cc2NC(=O)Nc2ccc(OCCN3CCOCC3)c3ccccc23)cc1 [doramapimod]
Summary of the method: as §1

[22] = compound: Cc1ccc(NC(=O)c2ccc(CN3CC[C@H](N(C)C)C3)c(C(F)(F)F)c2)cc1Nc1nccc(-c2cncnc2)n1 [bafetinib]
Summary of the method: as §1

[23] = compound: Cc1cccc(CC(=O)N2CCc3c2ccc(-c2cn(C)c4ncnc(N)c24)c3F)n1
Summary of the method: as §1

[24] = compound: Cc1cn(-c2cc(NC(=O)c3ccc(C)c(Nc4nccc(-c5cccnc5)n4)c3)cc(C(F)(F)F)c2)cn1 [nilotinib]
Summary of the method: as §1

[25] = compound: Cc1nc(Nc2n[nH]c3c2CN(C(=O)N[C@H](CN(C)C)c2ccccc2)C3(C)C)c2sccc2n1
Summary of the method: as §1

[26] = compound: Cc1nc(Nc2ncc(C(=O)Nc3c(C)cccc3Cl)s2)cc(N2CCN(CCO)CC2)n1 [dasatinib]
Summary of the method: as §1

[27] = compound: Cc1ncc(-c2ccnc(Nc3ccc(S(C)(=O)=O)cc3)n2)n1C(C)C
Summary of the method: as §1

[28] = compound: Cc1sc2c(c1C)C(c1ccc(Cl)cc1)=N[C@@H](CC(=O)OC(C)(C)C)c1nnc(C)n1-2
Summary of the method: as §1

[29] = compound: Cn1cc(-c2ccc3c(c2)CCN3C(=O)Cc2cccc(C(F)(F)F)c2)c2c(N)ncnc21
Summary of the method: as §1

[30] = compound: Cn1cc(CNCC2CCN(c3ncc(C(=O)NO)cn3)CC2)c2ccccc21 [quisinostat]
Summary of the method: as §1

[31] = compound: Cn1cncc1[C@@](N)(c1ccc(Cl)cc1)c1ccc2c(c1)c(-c1cccc(Cl)c1)cc(=O)n2C [tipifarnib]
Summary of the method: as §1

[32] = compound: NC(=O)Nc1cc(-c2cccc(F)c2)sc1C(=O)N[C@H]1CCCNC1
Summary of the method: as §1

[33] = compound: NC(=O)c1cnc(N[C@@H]2CCCC[C@@H]2N)nc1Nc1cccc(-n2nccn2)c1
Summary of the method: as §1

[34] = compound: NC1(c2ccc(-c3nc4ccn5c(=O)[nH]nc5c4cc3-c3ccccc3)cc2)CCC1
Summary of the method: as §1

[35] = compound: NCC(=O)Nc1ccc(-n2nc(C(F)(F)F)cc2-c2ccc3c(ccc4ccccc43)c2)cc1
Summary of the method: as §1

[36] = compound: O=C(CCCCCCC(=O)Nc1ccccc1)NO [vorinostat]
Summary of the method: as §1

[37] = compound: O=C(O)c1ccc2c(c1)nc(Nc1cccc(Cl)c1)c1ccncc12 [silmitasertib]
Summary of the method: as §1

[38] = compound: O=C1NC(=O)C(c2cnc3ccccn23)=C1c1cn2c3c(cc(F)cc13)CN(C(=O)N1CCCCC1)CC2
Summary of the method: as §1

[39] = compound: c1ccc([C@@H]2C[C@H]2NC2CCNCC2)cc1
Summary of the method: as §1

[40] = compound: c1cn2cc(-c3ccc4cn[nH]c4c3)nc(Nc3ccc(N4CCOCC4)cc3)c2n1 [entospletinib]
Summary of the method: as §1

[41] = compound: C1=CC=C(C=C1)[C@H](COC2=CC3=C(C=C2)NC(=O)N3)NC(=O)C4=CC=CN(C4=O)CC5=CC(=C(C=C5)F)F
Summary of the method: as §1

[42] = compound: CC1=C(SC2=C1C(=N[C@H](C3=NN=C(N32)C)CC(=O)N)C4=CC=C(C=C4)Cl)C
Summary of the method: as §1

[43] = compound: CC1=C2C(=CC=C1)N=C(N(C2=O)C3=CC=CC=C3C)CN4C=NC5=C(N=CN=C54)N
Summary of the method: as §1

Measured: log2 fold change

SLTM (UniProt Q9NWH9)
inactive: [1] 0.022 | [2] -0.068 | [3] 0.038 | [4] -0.01 | [5] 0.025 | [6] -0.051 | [7] 0.026 | [8] 0.026 | [9] 0.01 | [10] 0.06 | [11] 0.033 | [12] -0.009 | [13] -0.026 | [14] -0.002 | [15] -0.002 | [16] 0.021 | [17] -0.041 | [18] 0.035 | [19] -0.017 | [20] 0.049 | [21] 0.041 | [22] -0.083 | [23] 0.077 | [24] 0.085 | [25] -0.123 | [26] 0.062 | [27] -0.056 | [28] -0.034 | [29] -0.002 | [30] -0.004 | [31] 0.028 | [32] -0.016 | [33] -0.017 | [34] -0.048 | [35] -0.03 | [36] -0.022 | [37] 0.016 | [38] -0.048 | [39] 0.021 | [40] -0.02

SLC5A3 (UniProt P53794)
inactive: [41] -0.034 | [42] -0.016 | [43] -0.001 | [28] -0.041 | [39] -0.002

SMAD5 (UniProt Q99717)
inactive: [41] -0.008 | [42] -0.004 | [43] 0.054 | [28] -0.025 | [39] 0.118

SLC25A40 (UniProt Q8TBP6)
inactive: [41] 0.003 | [42] 0.003 | [43] 0.053 | [28] -0.053 | [39] 0.173

SLC39A3 (UniProt Q9BRY0)
inactive: [41] -0.078 | [42] 0.024 | [43] 0.03 | [28] -0.019 | [39] 0.094

SLC2A1 (UniProt P11166)
inactive: [41] -0.009 | [42] 0.009 | [43] 0.013 | [28] 0.002 | [39] 0.047

SMAD9 (UniProt O15198)
inactive: [41] 0.102 | [42] -0.074 | [43] 0.058 | [28] -0.099 | [39] 0.042

SLC6A9 isoform 2 (UniProt P48067)
inactive: [41] -0.042 | [42] -0.028 | [43] 0.069 | [28] -0.035 | [39] -0.055

SLC7A5 (UniProt Q01650)
inactive: [41] 0.019 | [42] -0.027 | [43] 0.003 | [28] -0.061 | [39] -0.231

SLC33A1 (UniProt O00400)
inactive: [41] -0.006 | [42] -0.053 | [43] -0.059 | [28] -0.021 | [39] 0.054

SLC43A1 (UniProt O75387)
inactive: [41] 0.012 | [42] 0.012 | [43] -0.064 | [28] 0.061 | [39] -0.046

SLC48A1 (UniProt Q6P1K1)
inactive: [41] -0.213 | [42] 0.052 | [43] 0.025 | [28] -0.03 | [39] -0.026

SLC25A30 (UniProt Q5SVS4)
inactive: [41] 0.023 | [42] 0.044 | [43] -0.045 | [28] -0.13 | [39] -0.006

Three successive entries already listed, quoted:
SLC43A1 (UniProt O75387)
inactive: [41] 0.012 | [42] 0.012 | [43] -0.064 | [28] 0.061 | [39] -0.046

SLC48A1 (UniProt Q6P1K1)
inactive: [41] -0.213 | [42] 0.052 | [43] 0.025 | [28] -0.03 | [39] -0.026

SLC25A30 (UniProt Q5SVS4)
inactive: [41] 0.023 | [42] 0.044 | [43] -0.045 | [28] -0.13 | [39] -0.006

(cont.)

SLC25A15 (UniProt Q9Y619)
inactive: [41] 0.023 | [42] 0.002 | [43] -0.03 | [28] -0.026 | [39] -0.059

SLC25A6 (UniProt P12236)
inactive: [41] -0.015 | [42] 0.036 | [43] -0.046 | [28] -0.011 | [39] -0.014

SLMAP isoform 3 (UniProt Q14BN4)
inactive: [41] 0.021 | [42] -0.009 | [43] 0.014 | [28] -0.029 | [39] -0.014

SLC35F2 (UniProt Q8IXU6)
inactive: [41] 0.114 | [42] 0.057 | [43] -0.02 | [28] -0.1 | [39] -0.104

SLC25A3 isoform 2 (UniProt Q00325)
inactive: [41] 0.019 | [42] 0.025 | [43] -0.003 | [28] -0.024 | [39] -0.06

SLC43A3 isoform 2 (UniProt Q8NBI5)
inactive: [41] 0.047 | [42] -0.065 | [43] 0.015 | [28] -0.039 | [39] 0.006
